71 sequences from the supplement of paper PMC10338343 can be followed below.

± gives the standard deviation. The entries are a selection whose mix differs from that of the whole data set. Many entries were measured with a wide error.

In this assay the test system is MIWI (PIWIL1) piRISC loaded with Kctd7 piRNA (30 nt). In words: pre-steady-state target cleavage rate (min^-1); MIWI and MILI are mouse PIWI proteins and EfPiwi is from a freshwater sponge; tags in brackets are library labels; higher = faster piRNA-guided slicing of the target. As to conditions: guide: Kctd7 piRNA 5'p-UGUUAAUCUCUCAGAGAAGGUGACAGUGAU; auxiliary factor: 500 nM mouse GTSF1. An outline of the steps: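 Sequencing of uncleaved targets, normalised to depth and to weakly complementary targets, was the readout of this Cleave-'n-Seq assay. A transcribed, DNA-blocked target RNA library (0.1 nM) was mixed with 1 nM active affinity-purified piRISC carrying one synthetic guide, with or without 500 nM GTSF1 partner protein, in HEPES–potassium acetate buffer at 33 °C for 0–8 or 0–960 min. Three trials were pooled, k3 was capped at 0.0001 min^-1, and a burst-and-steady-state fit gave the pre-steady-state cleavage rate.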
Take UAGUCUGUGUGCUUCUCUGAGAGAUUAUGA: the “pre-steady-state target cleavage rate” value was found to be 0.000271 ± 0.018. In the case of UAGUCUGUCAACUUCUCUGAGAGAUUAACA, the “pre-steady-state target cleavage rate” value was determined as 0.593 ± 0.024.

Take “UAGUGACAGUGGAAGAGACUCUCAUUAACU [g2:g7:cont:t1U]”: the “pre-steady-state target cleavage rate” value was 0.000135 ± 0.029. As for UAGUGAGUCACCUUCUCUCUGAGAUUAAGA, the figure is 0.00175 ± 0.0049; as for UACACUGUCACCUUCUCAGAGAGAAUAACA, 0.076 ± 0.021. As for AUCACUGUCAACUUCUCUGAGAGAUUAACA, the figure is 0.793 ± 0.045; as for AUCACAGUCACGUUCUCUGAGAGAUUAACA, 0.737 ± 0.026.

Take “UAGUGACACACCUUCUCUGAGUCUAAUUGA [g10:g22:cont:t1A]”: the “pre-steady-state target cleavage rate” value was 0.000462 ± 0.014. As for UAGUCUGUCACGAACUCUGAGAGAUUAAGA, the “pre-steady-state target cleavage rate” value was found to be 0.000824 ± 0.0069. Take UAGUGACUCACCAAGUCUGAGAGAUUAAGA: the “pre-steady-state target cleavage rate” value was 0.000493 ± 0.0091. Next, UAGUGACAGUGCUUCUCUGAGGAUUAACA: 0.000231 ± 0.008.

On to UAGUGUGACACCUUCUCUGAGAGAUUAUGA, for which the “pre-steady-state target cleavage rate” value was 0.0202 ± 0.0074.

For the sequence UAGUGACAGACCUUCUCUGAGUCUUUUUGA, the “pre-steady-state target cleavage rate” value worked out at 0.000663 ± 0.014.

As to UAGUGACUCACCUACUCUGAGAGAUAUUGA, the “pre-steady-state target cleavage rate” value was 0.000944 ± 0.0069. As for UAGUGUGUCACCUUCUCACAGAGAUUUUGA, the figure is 0.00194 ± 0.0065; as for UAGUGACACACGUUCUCUGAGAGAUAUUGA, 0.00031 ± 0.018; as for UAGUGACAGUGGAAGAGAGCGAGAUUAACA, 0.000206 ± 0.024.

For AUCACUGUCAGCUUCUCUGAGAGAUUAACA, the “pre-steady-state target cleavage rate” value stood at 0.802 ± 0.044. In the case of UAGACUCAGACCUUCUCUGAGAGAUAUUGA, the “pre-steady-state target cleavage rate” value was 0.00205 ± 0.0038.

For UAGUGACAGACCUUCUUCUGAGAGAUUAACA, the “pre-steady-state target cleavage rate” value was determined as 0.00151 ± 0.0068. As for UAGUGACAGUGCUUCUCUGAGAGAUAUUCA, the figure is 0.000115 ± 0.015.

Take UAGUGACUCACCUUCUCUCAGAGAUUUUGA: the “pre-steady-state target cleavage rate” value came out at 0.000582 ± 0.014. Next, UAGUGACAGACCUUCUCUGAGACAUUAAGA: 0.00104 ± 0.0096. As for UAGACUGUCACCUUGUCUGAGAGAUUAUCA, the “pre-steady-state target cleavage rate” value is 0.643 ± 0.1. On to UAGUGACAGUCCUUCUCUGAGAGAUUACA, for which the “pre-steady-state target cleavage rate” value amounted to 0.00199 ± 0.0038. Consider UAGUGACAGUCCUACUCUCAGAGAUUAACA, for which the “pre-steady-state target cleavage rate” value turned out to be 0.000104 ± 0.019. Next, UUCACCUGUCACCUUCUCUGAGAGAUUAACA: 0.73 ± 0.033; UACACUGUCUGGUUCUCUGAGAGAUAUUGA: 0.000476 ± 0.016; UAGUGACAGUCCUUCUCUCAGAGUUUAACA: 0.00172 ± 0.004. As for UAGUGACACACCUUCUCUGACGAGAUUAACA, the figure is 0.00152 ± 0.005; as for UACACUGUCACCUUCUCUGAGUCAUUAUGA, 0.00293 ± 0.0042. Next, UAGUGACAGACCUUGUCUGACAGAUUAACA: 0.00217 ± 0.0056. As to UAGUGACAGUCCAAGUCUGAGAGAUUAAGA, the “pre-steady-state target cleavage rate” value came to 0.000196 ± 0.038.

Take UAGUGACUCACCUUCUCUGAGUGAUUAUGA: the “pre-steady-state target cleavage rate” value was 0.00131 ± 0.0049. Next, UAGUGACAGUCCUUCUCUGAGACAUAAACA: 0.000125 ± 0.025; UAGUCUGUGACCUUCUCUGAGAGAUAUUGA: 0.00311 ± 0.0039. As for UAGUGUGUCACCUUCUCUGUCUGAUUAACA, the “pre-steady-state target cleavage rate” value is 0.000922 ± 0.011. For the sequence UAGACUGUCACCUUCUCUGAGACAUUAUGA, the “pre-steady-state target cleavage rate” value was 0.00121 ± 0.0048.

For the sequence UAGUGACAGUGCUUCGUCUGAGAGAUUAACA, the “pre-steady-state target cleavage rate” value worked out at 0.00121 ± 0.0066. Next, UAGUGUGUCACCUUCUCUGUCAGAUUUUGA: 0.000593 ± 0.022; UAGUGACAGACCAAGUCUGAGAGAUUAUGA: 0.000595 ± 0.017; AACACUGUCACCUUCUCUGAGAGAUUAUGA: 0.101 ± 0.021. Turning to UAGUGACAGUGCUUCUGUGAGAGUUUAACA, the “pre-steady-state target cleavage rate” value came out at 0.00298 ± 0.0033.

Regarding UAGUGACAGUGGAACUCUGAGAGCUUAACA, the “pre-steady-state target cleavage rate” value is 0.000102 ± 0.044. UACACUGUCACUUCUCUGAGAGAUUAACA: the “pre-steady-state target cleavage rate” value was found to be 0.577 ± 0.038. Regarding UAGUGACACACCUUCACUGAGACAUUAACA, the “pre-steady-state target cleavage rate” value stood at 0.17 ± 0.029. As for UAGUGAGUCACCUUCUCUGAGACAUUAAGA, the figure is 0.00377 ± 0.005. As for UACACUGUCACCUUCACUGAGAGUUUAACA, the figure is 0.356 ± 0.081; as for UAGUGACAGUCCUUCUCUGAGAGAUUAUGA, 0.00211 ± 0.0048.

In the case of “UAGUGACAGUGGAAGAGACAGAGAUUAACC [g2:g11:cont:t1C]”, the “pre-steady-state target cleavage rate” value was 0.000233 ± 0.031.

In the case of UAGUGACAGACCAUCUCUGAGAGAUUAUGA, the “pre-steady-state target cleavage rate” value was 0.000967 ± 0.0063. Turning to UAGUGACAGACCUUCUCUGAGUCAUUAACA, the “pre-steady-state target cleavage rate” value is 0.00161 ± 0.0047. As for UAGACUGUCACCUGCUCUGAGAGAUUAACA, the figure is 0.77 ± 0.043. Next, UAGUGAGUCACGUUCUCUGAGAGAUAUUGA: 0.00276 ± 0.0042.

Take UAGUGACAGACCUUCUCGUGAGAGAUUAACA: the “pre-steady-state target cleavage rate” value amounted to 0.000564 ± 0.019.

As to UUCGACUGUCACCUUCUCUGAGAGAUUAACA, the “pre-steady-state target cleavage rate” value is 0.859 ± 0.06. As for UAGUGACAGACCUUCUCUGACAGAAUAACA, the figure is 0.00215 ± 0.006. In the case of UACACUGUCACCUUCUCUCUCAGAUUAUGA, the “pre-steady-state target cleavage rate” value turned out to be 0.00204 ± 0.009.

Consider UAGUGACAGACCUUCUCUGAGUCUUUAACA, for which the “pre-steady-state target cleavage rate” value came out at 0.000457 ± 0.02.

Consider UACACGUCACCUUCUCUGAGAGAUUAACA, for which the “pre-steady-state target cleavage rate” value worked out at 0.737 ± 0.043. Next, UAGUGACAGUGCUACUGUGAGAGAUUAACA: 0.000326 ± 0.016.

With UAGUGACUCACCUUCUCUGACUCAUUAAGA, the “pre-steady-state target cleavage rate” value was 0.000166 ± 0.019.

For UAGUCUGUCAGCUUCUCUGAGAGAUUUUGA, the “pre-steady-state target cleavage rate” value was determined as 0.00234 ± 0.0039. Next, UAGUCUGUCACCUUGACUGAGAGAUUAAGA: 0.00338 ± 0.0035; “UAGUGACAGUGGAUCUCUGAGAGAUUAACA [g2:g17:cont:t1A]”: 0.00112 ± 0.004. As for “UAGUGACAGACCUUCUGACUCUCUAAUUGA [g15:g21:cont:t1A]”, the figure is 0.000455 ± 0.018; as for UUCUCUGUCAGCUUCUCUGAGAGAUUAACA, 0.586 ± 0.028.

Take AUCUGAGUCACCUUCUCUGAGAGAUUAACA: the “pre-steady-state target cleavage rate” value came out at 0.652 ± 0.053. As for UAGUGAGUCACCUUCUCUGUCAGAUUUUGA, the “pre-steady-state target cleavage rate” value was 0.00154 ± 0.009. As for UAGUGACAGUGGAAGAGACAGAGAUUUACA, the figure is 0.000272 ± 0.019; as for UAGUGUGUCACCUUCUCACAGAGAUUAUGA, 0.00137 ± 0.0092.
